Results published in PMC8545693.
These are yes or no findings as the source states them, for the method shown. In cells and extracts the contact can be indirect. Some results given as binding are weak or reduced against the parent protein; the word gives no strength.

Chains of the proteins cited; added tags and fusions are not shown.
UniProt P25490: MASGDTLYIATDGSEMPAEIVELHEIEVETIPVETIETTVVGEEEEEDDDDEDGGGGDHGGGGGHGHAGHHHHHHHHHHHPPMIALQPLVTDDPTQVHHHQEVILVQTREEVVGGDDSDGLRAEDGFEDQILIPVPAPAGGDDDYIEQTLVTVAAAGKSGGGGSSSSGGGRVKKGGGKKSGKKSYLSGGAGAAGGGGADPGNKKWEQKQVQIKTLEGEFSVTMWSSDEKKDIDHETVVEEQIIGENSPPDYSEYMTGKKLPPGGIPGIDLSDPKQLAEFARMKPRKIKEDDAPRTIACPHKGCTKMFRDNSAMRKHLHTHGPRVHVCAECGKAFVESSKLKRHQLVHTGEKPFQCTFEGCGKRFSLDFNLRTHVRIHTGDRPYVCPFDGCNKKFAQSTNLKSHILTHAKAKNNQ
UniProt Q92560: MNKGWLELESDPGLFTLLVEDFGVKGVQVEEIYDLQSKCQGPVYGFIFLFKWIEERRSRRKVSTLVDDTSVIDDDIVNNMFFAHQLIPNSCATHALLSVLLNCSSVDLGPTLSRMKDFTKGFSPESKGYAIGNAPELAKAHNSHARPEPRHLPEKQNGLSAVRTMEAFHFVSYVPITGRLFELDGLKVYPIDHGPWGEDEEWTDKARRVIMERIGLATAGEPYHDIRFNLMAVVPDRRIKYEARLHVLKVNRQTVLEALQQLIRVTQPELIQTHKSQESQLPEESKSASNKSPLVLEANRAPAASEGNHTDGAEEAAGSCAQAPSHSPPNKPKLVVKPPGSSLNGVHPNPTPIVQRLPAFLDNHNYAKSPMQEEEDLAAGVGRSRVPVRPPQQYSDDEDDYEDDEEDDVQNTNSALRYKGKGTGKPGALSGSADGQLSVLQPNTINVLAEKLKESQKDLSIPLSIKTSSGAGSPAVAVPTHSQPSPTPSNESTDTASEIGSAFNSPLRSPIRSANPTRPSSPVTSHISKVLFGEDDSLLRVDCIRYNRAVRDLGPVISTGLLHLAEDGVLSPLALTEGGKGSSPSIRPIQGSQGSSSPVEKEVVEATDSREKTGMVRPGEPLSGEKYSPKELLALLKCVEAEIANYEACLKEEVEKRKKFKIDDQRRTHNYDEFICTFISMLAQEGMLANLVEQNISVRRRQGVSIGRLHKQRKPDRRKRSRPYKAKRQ

Target: Ying Yang 1 (YY1) (human (endogenous in H2818, MPP89, Caki-1, Meso-8T)) (UniProt P25490)
Experiment: co-IP; lysates in IP buffer (0.2% NP-40, 20 mM Tris-HCl pH 7.4, 150 mM NaCl, 10% glycerol) incubated overnight with anti-YY1 antibody or IgG, protein-A magnetic beads, immunoblot with anti-BAP1

Substance	binding
BRCA1-associated protein 1 (BAP1), endogenous (from UniProt Q92560 1-729)	binds
wt-BAP1 (lentivirally transduced full-length BAP1) (from UniProt Q92560 1-729)	binds
